Binding data for one molecule are collected here from publication PMC8998557, “A Novel Family of Winged-Helix Single-Stranded DNA-Binding Proteins from Archaea”.

Results are given in words; binding and its absence hold for the method and conditions named.

In the assay the target is Sul7s from Sulfolobus islandicus Rey15A (SiRe_1983) (Sulfolobus islandicus Rey15A) (UniProt F0NBY5). In words: AUC; sedimentation velocity, absorbance at 280 nm, 20 °C, 50,000 rpm, 50 mM Tris-HCl pH 6.8, 50 mM NaCl; both purified.

B1: Sul7s from Sulfolobus islandicus Rey15A (SiRe_1983) (protein, UniProt F0NBY5 1-59)
chain: MEDVKQSVEKIIKDREWVTFNDLLKYIPYPAPEVYDALSQLIKENKVGRRGRYFYYIKR
Turning to B1, the binding entry was “no binding”.
